Measured values: the supplement of paper PMC12823440, “Inhibitors supercharge kinase turnover through native proteolytic circuits” (Nature, 2025)
Structures can show the parent of a compound that is named as a salt. This is one part of the list. Hit calls seldom repeat between salt and free forms of one compound.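 In K562 cells expressing nanoluciferase-fused kinases, luminescence was recorded at 4 h intervals between 2 and 18 h, normalized as percent of control with DMSO at 100% and a positive control at 0%. A significant (2 sigma) signal drop marks a time point as decreased. The authors' rule for a hit is not shown and takes in more than the number of time points.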

Protein sequences, listed by entry. Tags and fused reporters are not part of them. Lines headed by an entry give the natural chain unless they say otherwise; changes in a name come on top.
UniProt Q9UQB9: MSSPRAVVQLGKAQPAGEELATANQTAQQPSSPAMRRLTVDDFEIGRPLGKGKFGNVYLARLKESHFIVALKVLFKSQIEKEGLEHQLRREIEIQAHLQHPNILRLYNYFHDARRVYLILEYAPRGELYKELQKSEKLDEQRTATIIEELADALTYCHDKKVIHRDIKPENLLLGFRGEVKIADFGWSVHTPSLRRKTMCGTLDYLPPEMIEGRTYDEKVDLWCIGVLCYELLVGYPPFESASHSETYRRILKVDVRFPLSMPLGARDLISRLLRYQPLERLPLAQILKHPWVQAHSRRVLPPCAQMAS

Biological target: AURKC (UniProt Q9UQB9)
Assay: kinase-Nluc reporter destabilization hit call (1 = scored as downregulated) (binary); higher = compound decreases kinase abundance
Conditions: K562; 2-18 h

kinase-Nluc reporter destabilization hit call, inactive:
O=c1cc(O)cc(/C=C/c2ccc(O)c(O)c2)o1 [Hispidin] (10 µM) 0, CC1CN(C(=O)Nc2ccc(Cl)c(Cl)c2)C(=Nc2ccc(F)cc2)S1 (stereo not drawn) (10 µM) 0, COc1cc2c[n+](C)c3c4cc5c(cc4ccc3c2cc1OC)OCO5 [Nitidine (chloride)] (2 µM) 0, Cc1c(CN2CCN(S(C)(=O)=O)CC2)sc2c(N3CCOCC3)nc(-c3cnc(N)nc3)nc12 (2.5 µM) 0, Cc1cc([C@H](C)Nc2ccccc2)c2oc(N3CCOCC3)cc(=O)c2c1 (10 µM) 0, O=C(CNC(=O)c1ccc(-c2ccccc2)cc1)NC1CCCc2ccccc21 (stereo not drawn) [TAO Kinase inhibitor 1] (10 µM) 0, Cn1cc(-c2ccc(CNc3cc(-c4cnc5cc(OCCCN6CCCC6)ccn45)ncn3)cc2)cn1 (10 µM) 0, Cc1ccc(S(=O)(=O)Nc2ccccc2C=Nc2ccccc2NS(=O)(=O)c2ccc(C)cc2)cc1 (10 µM) 0, O=C(/C=C/c1ccc(O)c(O)c1)c1ccc(O[C@@H]2O[C@H](CO)[C@@H](O)[C@H](O)[C@H]2O)c(O)c1O [Marein] (10 µM) 0, O=C(NCCCNc1nc(Nc2cccc(NC(=O)N3CCCC3)c2)ncc1I)c1cccs1 (2.5 µM) 0, CN(CCNc1ccc2ncc(-c3ccc(C(N)=O)cc3)n2n1)C(=O)OC(C)(C)C (10 µM) 0, C=C(C)C(=O)Nc1cccc(-c2ncnc3[nH]cc(C(=O)OCC)c23)c1 (10 µM) 0, COc1ccc(C(=C2C(=O)Nc3ccccc32)c2ccc(OC)cc2)cc1 (10 µM) 0, CN1CCN(c2ccc(C(=O)Nc3cc(-c4cccc(NS(=O)(=O)c5ccccc5)c4)[nH]n3)cc2)CC1 [BPR1J-097 Hydrochloride] (2.5 µM) 0, C=CC(=O)Nc1cc2c(Nc3ccc(OCc4ccccn4)c(Cl)c3)ncnc2cc1OCCN1CCOCC1 (10 µM) 0, Cc1c(NC(=O)OC[C@@H]2COCCN2)cn2ncnc(Nc3ccc4c(cnn4Cc4cccc(F)c4)c3)c12 (10 µM) 0, CNc1nc(Nc2cnn(C3CCN(C4COC4)CC3F)c2Cl)ncc1C(F)(F)F (stereo not drawn) (10 µM) 0, O=C(NCCO)c1ccc2c(c1)nc(Nc1cccc(Cl)c1)c1ccncc12 [CK2 inhibitor 2] (10 µM) 0, N#CC(c1ccnc(NCCc2cccnc2)n1)c1nc2ccccc2s1 (stereo not drawn) (10 µM) 0, CCN(CC)S(=O)(=O)c1ccc(OC)c(N2CCN(C(=O)c3ccc(F)cc3C(F)(F)F)CC2)c1 (10 µM) 0, CO[C@H]1C[C@@H]2CC[C@@H](C)[C@@](O)(O2)C(=O)C(=O)N2CCCC[C@H]2C(=O)O[C@H]([C@H](C)C[C@@H]2CC[C@@H](O)[C@H](OC)C2)CC(=O)[C@H](C)/C=C(\C)[C@@H](O)[C@@H](OC)C(=O)[C@H](C)C[C@H](C)/C=C/C=C/C=C/1C [Rapamycin] (10 µM) 0, CN(C)CCN(Cc1ccc(Cl)cc1)c1ccccn1 [Chloropyramine hydrochloride] (10 µM) 0, O=C(Nc1ccc(F)cc1F)[C@H](NC(=S)Nc1cc(C(F)(F)F)cc(C(F)(F)F)c1)c1ccccc1 (2.5 µM) 0, Cc1ccc(Nc2cc(-c3cccc(N4C(=O)c5ccccc5C4=O)c3)ncn2)cc1NS(C)(=O)=O (10 µM) 0, CC(C)(C)c1ccc(S(=O)(=O)Nc2ccc(-n3ccnc3)cc2)cc1 (10 µM) 0, CCc1cc(O)c(F)cc1-c1ccc2c(-c3nc4c([nH]3)CN(C3CCN(C)CC3)CC4)n[nH]c2c1 [JAK-IN-5 (hydrochloride)] (2 µM) 0, CC1=C2C(=O)O[C@@H](c3ccoc3)[C@]2(C)CCC1 [Fraxinellone] (10 µM) 0, COc1cc(C(N)=O)nc(-c2cccc(C#C[C@]3(O)CCN(C)C3=O)c2)c1 (10 µM) 0, COc1ncc(-c2nc(N3CCOCC3)nc3c(CN4CCC(C(C)(C)O)CC4)cc(F)cc23)cc1NS(C)(=O)=O [Linperlisib] (10 µM) 0, Fc1ccc(-c2nc(-c3ccccc3F)[nH]c2-c2ccncc2)cc1 (2.5 µM) 0, CC(C)=CC[C@H](O)C1=CC(=O)c2c(O)ccc(O)c2C1=O [(-)-Alkannin] (2.5 µM) 0, CC(C)c1cnc(-c2cc(Cl)ccc2F)cc1Nc1ccncc1C(=O)NC(CO)CO (2.5 µM) 0, Cn1cnc(-c2cc3nccc(Oc4ccc(NC(=S)NC(=O)Cc5ccccc5)cc4F)c3s2)c1 [MGCD-265 analog] (10 µM) 0, COC1(c2sc3c(N4CCOCC4)nc(-c4cnc(N)nc4)nc3c2C)COC1 (2.5 µM) 0, Cc1cc(NC(=O)c2cccc(NC(=O)/C=C/CN(C)C)c2)ccc1Nc1nccc(-c2cccnc2)n1 (10 µM) 0, O=C(/C=C/c1ccc(O)c(O)c1)OC1CC(OC(=O)/C=C/c2ccc(O)c(O)c2)(C(=O)O)CC(O)C1O (stereo not drawn) [1,3-Dicaffeoylquinic acid] (10 µM) 0, COc1ccc2c(c1O)OC(C)(C)c1c-2ccc2c1C(=O)N(c1ccc(C(=O)c3ccccc3)cc1)C2=O [Ampkinone] (10 µM) 0, CNC(=O)Nc1ccc(-c2cc(-c3ccnc(Nc4ccc(C)c(S(=O)(=O)N(C)C)c4)n3)ccn2)cc1 [hSMG-1 inhibitor 11e] (2.5 µM) 0
